PubChem BioAssay AID504784 | Drosophila RNAi Screening Center – 2011

Screen: 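Fly genes whose silencing alters how much lipid cells keep in droplets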 (primary screen)
Cells: Drosophila Kc167 embryonic cells
Reagents: long dsRNA against Drosophila genes, about 250 ng dsRNA per well
Duration: 4 days
Challenge: cells fed 400 µM oleic acid bound to BSA
Detection: 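Microscope images give a droplet-to-nucleus area ratio, taken as log and converted to a screen-wide B-score; higher values mean greater lipid storage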
Direction: droplet/nuclear area B-score: higher = more stored lipid (overstorage)
In all, the deposit lists about 17,000 reagents; shown is an unselected part of those that have a named target and a result. 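Each column is one replicate's B-score; the combined score over replicates was not deposited, so single values may mislead.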 The numbers tell different reagents against one gene apart. Names joined by + are all predicted targets of the reagent.

| gene | reagent no. | droplet/nuclear area B-score, replicate 1 | droplet/nuclear area B-score, replicate 2 | droplet/nuclear area B-score, replicate 3 |
| --- | --- | --- | --- | --- |
| Eps-15 (Epidermal growth factor receptor pathway substrate clone 15) | 1 | -0.0186 | 1 | – |
| Pp2A-29B (Protein phosphatase 2A at 29B) | 1 | 1.53 | 0.0141 | – |
| Oatp58Db (Organic anion transporting polypeptide 58Db) | 1 | -0.529 | 0.0753 | – |
| CG10949 | 1 | -1.76 | -0.213 | – |
| dwg (deformed wings) | 1 | 1.04 | – | – |
| CG10936 | 1 | 0.322 | 0.616 | – |
| CG10936 | 2 | 0.583 | -1.21 | – |
| CG10936 | 3 | 0.747 | -0.224 | – |
| CG44838 | 1 | -2 | -1.47 | – |
| CG44838 | 2 | -0.828 | -0.52 | – |
| CG11373 | 1 | 0.177 | 0.33 | – |
| Dic1 | 1 | 1.13 | 1.64 | – |
| Rh2 (Rhodopsin 2) | 1 | -5.11 | 1.19 | – |
| Pus10 (Pseudouridine synthase 10) | 1 | -0.113 | -1.02 | – |
| CG13133 | 1 | 0.0247 | 1.54 | – |
| CG2082 | 1 | 0.652 | -0.0913 | – |
| CR33294 (pseudo) | 1 | -0.465 | -0.753 | – |
| Vrp1 (Verprolin 1) | 1 | 1.03 | 0.772 | – |
| CG4313 | 1 | -4.11 | – | – |
| RpS17 (Ribosomal protein S17) | 1 | 1.42 | 4.8 | – |
| yl (yolkless) | 1 | -1.56 | -1.62 | – |
| CG14829 | 1 | 0.51 | 3.74 | – |
| gol (goliath) | 1 | -0.788 | -0.311 | – |
| CG11983 | 1 | 0.708 | 0.469 | – |
| CG12519 | 1 | -0.187 | -0.881 | – |
| CG12519 | 2 | -1.28 | 0.961 | – |
| CG30472 | 1 | -1.13 | 0.29 | – |
| Dd (Dullard) | 1 | 0.656 | -0.221 | – |
| CG17300 | 1 | -0.6 | 0.0421 | – |
| Jra (Jun-related antigen) | 1 | -2.39 | 0.0675 | – |
| SPH93 (Serine protease homolog 93) | 1 | 0.161 | -1.12 | – |
| Ccdc58 (Coiled-coil domain-containing 58) | 1 | -0.216 | 0.562 | 0.518 |
| mRpL43 (mitochondrial ribosomal protein L43) | 1 | 0.669 | 0.0647 | 12.2 |
| mRpL43 (mitochondrial ribosomal protein L43) | 2 | 2.1 | 0.832 | – |
| jhamt (juvenile hormone acid methyltransferase) | 1 | 1.66 | 0.371 | – |
| Kpc1 (Kip1 ubiquitination-promoting complex subunit 1) | 1 | -0.161 | -0.00624 | – |
| Muc26B (Mucin 26B) | 1 | 0.312 | 0.488 | – |
| CG14270 | 1 | 0.187 | 1.46 | – |
| Pfdn4 (Prefoldin 4) | 1 | 0.635 | 0.0129 | – |
| CG10431 | 1 | -1.31 | -1.78 | – |
| CG13698 | 1 | -2.03 | -0.153 | -0.716 |
| Saf-B (Scaffold attachment factor B) | 1 | 5.93 | -0.261 | – |
| CG30393 | 1 | -0.704 | 1.38 | – |
| sei (seizure) | 1 | – | -2.17 | – |
| GstE11 (Glutathione S transferase E11) | 1 | 0.733 | -1.53 | – |
| Mtpbeta (Mitochondrial trifunctional protein beta subunit) | 1 | 0.578 | 4.14 | – |
| tin (tinman) | 1 | 0.287 | 0.133 | – |
| tin (tinman) | 2 | 2.35 | 6.34 | – |
| tin (tinman) | 3 | -2.55 | 0.518 | – |
| CG9259 | 1 | -0.376 | -0.382 | – |
| CG14280 | 1 | -0.015 | 0.174 | – |
| MAPk-Ak2 (MAP kinase activated protein-kinase-2) | 1 | 0.279 | 0.228 | – |
| Rrp40 (Ribosomal RNA processing 40) | 1 | -2.42 | -1.17 | – |
| Nost (Nostrin) | 1 | -1.73 | -3.28 | – |
| Nost (Nostrin) | 2 | -0.448 | -0.323 | – |
| Nf1 (Neurofibromin 1) | 1 | 2.05 | 0.668 | – |
| sub (subito) | 1 | -0.279 | -1.04 | – |
| Sbat (Sabbat) | 1 | 1.64 | 0.375 | – |
| nAChRbeta2 (nicotinic Acetylcholine Receptor beta2) | 1 | -1.89 | -0.772 | – |
| ase (asense) | 1 | 0.494 | -1.9 | – |
| Vps8 (Vacuolar protein sorting 8) | 1 | -2.21 | 1.06 | – |
| Mabi (Mabiki) | 1 | -0.154 | 0.0171 | -0.0251 |
| CG16727 | 1 | -0.631 | -0.502 | – |
| AP-1mu (Adaptor Protein complex 1, mu subunit) | 1 | -0.132 | 6.57 | – |
| CG4914 | 1 | -0.341 | -0.607 | – |
| CG6330 | 1 | 2.78 | 5.9 | – |
| CG31871 | 1 | -0.439 | -0.602 | – |
| CG31871 | 2 | 1.69 | 0.981 | – |
| Best2 (Bestrophin 2) | 1 | -0.00748 | 0.132 | – |
| NFAT (NFAT nuclear factor) | 1 | 1.34 | -1.04 | -0.731 |
| CG31937 | 1 | -0.534 | 0.969 | – |
| CG33502 + CG32857 + CG32500 | 1 | -0.187 | -0.0322 | – |
| CG33502 + CG32857 + CG32500 | 2 | -0.62 | 0.978 | – |
| NimC1 (Nimrod C1) | 1 | -1.04 | -0.0502 | – |
| galectin | 1 | -1 | 1.33 | – |
| CG14683 | 1 | -0.164 | -0.332 | – |
| bocks (bocksbeutel) | 1 | -0.0739 | -0.0448 | – |
| CG14380 | 1 | -1.49 | -1.06 | – |
| spidey | 1 | 0.886 | -0.111 | – |
| Cadps (Calcium-dependent secretion activator) | 1 | 0.338 | -0.452 | – |
| Lac (Lachesin) | 1 | 0.442 | -1.33 | – |
| CG3448 | 1 | 0.5 | 1.02 | – |
| Mgat1 | 1 | -2.06 | -0.436 | – |
| Sox100B | 1 | -1.72 | 0.858 | – |
| Sox100B | 2 | 1.14 | -1.72 | – |
| Taf3 (TBP-associated factor 3) | 1 | 3.63 | 2.69 | – |
| CR31700 (pseudo) | 1 | 0.465 | 0.41 | – |
| GstT3 (Glutathione S transferase T3) | 1 | 0.442 | 1.54 | – |
| ACXC (Adenylyl cyclase X C) | 1 | 0.0947 | -0.116 | – |
| tj (traffic jam) | 1 | -0.039 | 2.35 | – |
| CG31415 | 1 | 0.0137 | 0.699 | – |
| Or1a (Odorant receptor 1a) | 1 | 1.78 | 0.0132 | – |
| Mcm6 (Minichromosome maintenance 6) | 1 | -0.0981 | 0.344 | -0.0457 |
| lawc (retired record) | 1 | -2.98 | -3.37 | – |
| lawc (retired record) | 2 | -0.38 | -2.5 | – |
| CG13059 | 1 | 0.519 | -0.594 | – |
| AcCoAS (Acetyl Coenzyme A synthase) | 1 | 2.33 | 2.65 | – |
| AcCoAS (Acetyl Coenzyme A synthase) | 2 | 3.77 | 0.312 | -0.276 |
| AcCoAS (Acetyl Coenzyme A synthase) | 3 | -0.215 | 1.03 | – |
| Parp1 (Poly-(ADP-ribose) polymerase 1) | 1 | 0.723 | 0.998 | – |
| Parp1 (Poly-(ADP-ribose) polymerase 1) | 2 | 1.14 | 1.66 | – |
| Parp1 (Poly-(ADP-ribose) polymerase 1) | 3 | 0.445 | -0.395 | – |
| CG9795 | 1 | -1.11 | 0.219 | 0.346 |
| strat (stratum) | 1 | -0.0247 | -4.99 | – |
| CG8172 | 1 | 0.895 | -0.0882 | – |
| CG8172 | 2 | 6.52 | -0.776 | – |

Only “droplet/nuclear area B-score, replicate 1”, for 12 of the entries above:
spidey	0.886
Cadps (Calcium-dependent secretion activator)	0.338
Lac (Lachesin)	0.442
CG3448	0.5
Mgat1	-2.06
Sox100B #1	-1.72
Sox100B #2	1.14
Taf3 (TBP-associated factor 3)	3.63
CR31700 (pseudo)	0.465
GstT3 (Glutathione S transferase T3)	0.442
ACXC (Adenylyl cyclase X C)	0.0947
tj (traffic jam)	-0.039
